In US4497802A (Eli Lilly and Company, priority 1983, dated 1985):

Test: peptide synthesis
Details: late stage modification step

Substance: N-[N-(tert-butoxycarbonyl)-L-phenylalanyl]-A35512B
- step yield: 67% yield
